In PubChem BioAssay AID1508600 (Functional Genomics Laboratory (NCATS/FGL), 2020):
The campaign covered roughly 53,000 sequences. About 3,700 (7%) were called active.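 Rule for the calls: active = gene knockdowns whose robust z-score for IL-1 alpha signal is at least 2 or at most -2, so actives lie on both sides; inactive = the rest.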 The list shows a part of the results.

Test: Components of the Cytosolic LPS Sensing Pathway: Gene Identification via Genome-wide siRNA Screen;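 note: robust z of the log signal after scaling to non-targeting control siRNA wells of the plate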
Conditions: RAW264.7 macrophages, IL-1a HTRF, actives lie on both sides, screened at 100 nM (by protocol), cells primed 5 h with Pam3CSK4 first
Procedure, shortened: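 Using IL-1a HTRF as read-out, the screen measured release from RAW264.7 cells after 48h siRNA knockdown (100 nM), 5 h Pam3CSK4 priming and 24 h cytosolic LipidA. Values were expressed relative to negative-control wells as robust z-scores.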

Row | Sequence | z-score
1 | CCUUACGAGAAAAAAUUAGTT against Spats1 | inactive: -1.02
2 | GGACAUAAAAGUGUCUCGATT against Cldn13 | inactive: 0.16
3 | CCCACCAAAUAAUUGGAAUTT against Phf20l1 | inactive: 1.08
4 | GCUAUAUCUACGACAAGGATT against Crip2 | inactive: -0.859
5 | GGACCAUUCGAAAAAUGCCTT against Cd5 | inactive: 0.769
6 | GCCUAGUAGAACUCCCAGCTT against Txn2 | inactive: -1.36
7 | CCAAAGCUUGCUUUAAAACTT against Timm21 | inactive: 0.447
8 | CCAUUAUUUCUACUCUCCCTT against Rpn1 | inactive: 0.102
9 | CCACCGAAAUCCUUAUUUUTT against Ppargc1a | inactive: 0.522
10 | GCACUUCCGGAAAAAGCGATT against Mpzl2 | inactive: 0.495
11 | GGCUCUGGACCAACUACUATT against Fam124b | inactive: -0.286
12 | GGACAAUCCGAACAUCAAATT against Sval1 | inactive: -0.403
13 | GGUGCUGAACUACAUGUACTT against Zbtb14 | inactive: 1.46
14 | CGGCAACUUCUUCAACAUATT against Fitm1 | inactive: 0.0142
15 | GGUAAAAGACUAAAGAAGATT against Coch | inactive: -0.485
16 | GGUCAUCUACCAACUCAGATT against Ifi202b | inactive: -0.296
17 | GCAAUAGACAUUUAAAGCATT against Pdlim3 | inactive: 0.142
18 | CCUAACCACUACCUUAUACTT against H2-DMa | active: 2.43
19 | GGAAAAAGCCUAACUAUGATT against Ccnl1 | inactive: -0.7
20 | GGAUGUCUCGGAACUAAGGTT against Med28 | inactive: -0.571
21 | GCUACAUCGUUCGAGCUAGTT against Cyc1 | inactive: 0.168
22 | GGCCAAUGAGAACAGCCUGTT against Ndst1 | inactive: -1.24
23 | GGUUUCUUGCCAAGAAAUUTT against Asic5 | inactive: -0.359
24 | GGUGAUGUGCUCCGGUUUATT against Mrs2 | inactive: 0.0701
25 | GGGAGUUUGAUUCUGACUCTT against Ank3 | inactive: -0.264
26 | GCGAAUCUUGGUUAAGCCGTT against Hook1 | inactive: 0.194
27 | GCCUUUAUCUACCAUUACUTT against Arfgap2 | inactive: -1.22

Reprinted at random: 3 entries already listed, in no set order.
Row | Sequence | z-score
16 | GGUCAUCUACCAACUCAGATT against Ifi202b | inactive: -0.296
22 | GGCCAAUGAGAACAGCCUGTT against Ndst1 | inactive: -1.24
13 | GGUGCUGAACUACAUGUACTT against Zbtb14 | inactive: 1.46

The list goes on.

Row | Sequence | z-score
28 | GGACAAUUCCAGUCAAUAATT against Ccdc115 | inactive: -1.01
29 | GCAGAGAUACCUAUCAAAGTT against Angptl4 | inactive: 1.16
30 | GGGAGAUGUUACAACUCAGTT against Sod2 | inactive: 1.89
31 | GGCUUGAAGCCCUAGUACUTT against Prss30 | active: 2.46
32 | GCCUCACAUUGUAGGAAUCTT against Ecsit | inactive: -0.27
33 | GGAAACUGGAUCAAACCAUTT against Smarcd3 | inactive: -0.707
34 | GGGCUUGAGAACAACCAGATT against Adamdec1 | inactive: -0.519
35 | GCAAGAGCUGAGUACUCUGTT against Ahsp | inactive: -0.522
36 | GGCCGCGUGUAAAAAGGUUTT against Haspin | inactive: -1.85
37 | GCUUCUAGCCUGUAUUGCCTT against Rps8 | inactive: 0.31
38 | GCUACAUCAAGGAAUUACUTT against Gramd1a | inactive: 0.297
39 | GGUUGGUCUCCUCUUCAUATT against Psmd10 | inactive: 1.09
40 | GGAGAAGGAGCUGGAAACGTT against Cttn | inactive: 0.645
41 | CCAUAUAGAUCAUCUGUUCTT against 4930470P17Rik | inactive: -0.442
42 | GGGAAAUGUUGAUAAUAAGTT against Morf4l2 | inactive: -1.87
43 | CCCUUUACAUUACUCUAGCTT against Olfr715 | inactive: 0.141
44 | GCGGUCAAAUGCAACAAACTT against Fabp5 | inactive: -0.33
45 | GAAUAUCCGCACACAAAGCTT against Olfr1356 | inactive: -1.08
46 | GCCAUUCACGACCCACUACTT against Olfr1095 | inactive: -0.102
47 | GCGAUCUAGUGAAGAUGUGTT against Rapgef4 | inactive: -0.82
48 | GGAAGACUGCACAGAUGUGTT against Ramp1 | inactive: -0.0448
49 | GGAAAGACUAUGCCCAUCUTT against 4930474M22Rik | inactive: 0.984
50 | CCACAUCAAGUCUAUCAUCTT against Ryr1 | inactive: -1.19
51 | GCCGGUCCUUAGAGUUGUUTT against Olfr506 | inactive: -0.67
52 | GGAGUACAUUCCCUCUACCTT against Nat8f1 | inactive: 1
53 | GCUAAAGUUGAUUGGAGAGTT against Rps9 | inactive: -0.262
54 | GGUUAAGCUACAAAACAACTT against Golm2 | inactive: -1.01
